# In PubChem BioAssay AID1487 (National Center for Advancing Translational Sciences (NCATS), 2009):
# The other results are listed elsewhere or left out. Further columns of the screen follow, without active or inactive calls. Compounds called inactive in the main read-out are mostly missing here. The note in brackets gives the kind of curve behind each potency; many fits are weak.
# Test: qHTS Assay for Modulators of Lamin A Splicing
# Conditions: HeLa LMNA splicing GFP/RFP minigene ratio, 48 h
# Procedure, shortened: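 S3 HeLa cells stably expressing lamin A-EGFP splicing minigene plus DsRed2, 600 cells/well, 48 h compound exposure at 37C. Laser-scanning cytometry; analysed as GFP (500-530 nm)/RFP (575-640 nm) total intensity ratio; 0.5% DMSO vehicle.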
# [1] = measured here: RFP viability control channel
# [2] = measured here: GFP splicing reporter channel
Compound,AC50 [1],AC50 [2]
CCOC(=O)Cn1c(=O)oc2cc(S(=O)(=O)NCc3ccccn3)ccc21,"3.98 µM [falling, single point]",–
CC(N=C1CC(C)(C)CC(=O)/C1=C(/O)CCCN1C(=O)c2ccccc2C1=O)C(=O)O (centres undefined),–,"0.0112 µM [rising, full curve, poor fit]"
Cn1c(=O)c2c(SCC(=O)NCc3ccco3)nc(-c3ccccc3)nc2n(C)c1=O,"0.708 µM [rising, full curve, poor fit]","0.398 µM [rising, full curve, poor fit]"
Cc1ccc(S(=O)(=O)N2CCCOC2CNC(=O)C(=O)NCCCn2ccnc2)cc1 (centres undefined),–,"0.00501 µM [falling, full curve, poor fit]"
CCn1cc(C(=O)OCC(=O)NCc2ccccc2Cl)c(=O)c2ccc(C)nc21,"0.0224 µM [falling, full curve, poor fit]",–
Clc1ccccc1-c1ccc2ncnc(NC3CCNCC3)c2c1,–,"11.2 µM [falling, partial curve, poor fit]"
O=c1c(-c2ccc(Cl)cc2)coc2c(CN3CCOCC3)c(O)ccc12,–,"0.0141 µM [rising, full curve, poor fit]"
CCNc1nc2nc3ccc(C)cn3c(=O)c2cc1C(=O)NCC1CCCO1 (centres undefined),–,"0.00316 µM [rising, full curve, poor fit]"
O=C(O)Cc1ccc(-c2ccccc2)cc1,"2.51 µM [falling, single point]","1.26 µM [falling, single point]"
CNc1nc(N2CCc3ccccc32)ncc1F,"5.01 µM [falling, partial curve, poor fit]","4.47 µM [falling, partial curve]"
Cc1ccc(-c2cc3c(n2-c2ccc(C(=O)O)cc2)CCCC3=O)cc1,"20 µM [rising, single point]",–
Cc1ccccc1C(=O)NC(=S)Nc1ccccc1N1CCCC1,"35.5 µM [rising, single point]","14.1 µM [rising, single point]"
CCOC(=O)c1cc([N+](=O)[O-])sc1NC(=O)CC,"35.5 µM [falling, partial curve, poor fit]","20 µM [falling, partial curve, poor fit]"
C=CCNC(=O)c1ccccc1NC(=O)C1COc2ccccc2O1 (centres undefined),"3.55 µM [falling, full curve]",–
CSc1nc2ccc(NC(=O)c3nn(C(C)C)c(=O)c4ccccc34)cc2s1,"0.00501 µM [falling, full curve, poor fit]","0.00316 µM [falling, full curve]"
CCN=c1scc(-c2ccc3c(c2)NC(=O)CO3)n1N=C1CCCC1,"4.47 µM [rising, full curve]",–
CC1CCn2c(nc3cc(C(=O)NCCc4ccc(Cl)cc4)ccc32)C1 (centres undefined),–,"14.1 µM [falling, partial curve, poor fit]"

Compound,AC50 [1],AC50 [2]
CCOC(=O)N1CCN(C(=O)c2ccc3c(=O)n(CCC4=CCCCC4)c(=O)[nH]c3c2)CC1,"31.6 µM [rising, single point]","12.6 µM [rising, partial curve]"
CCOC(=S)SCC(=O)N1CCc2cc(OC)ccc2C1C1C(=O)CCCC1=O (centres undefined),"0.0794 µM [rising, full curve, poor fit]","0.0562 µM [rising, partial curve, poor fit]"
CC(=O)c1ccc(OCC(O)COc2ccc(C(C)=O)cc2)cc1,"11.2 µM [rising, single point]","8.91 µM [rising, partial curve]"
Cc1cc(C)nc(N/N=C/c2sccc2C)n1,"2 µM [rising, partial curve, poor fit]",–
CCOC(=O)C1=C2c3ccc4ccccc4c3CC(C)(C)N2C(=O)C1=O,"25.1 µM [rising, single point]","15.8 µM [rising, single point]"
C=CCn1c(Oc2ccccc2)nc2c1c(=O)n(C)c(=O)n2C,–,"1.26 µM [falling, partial curve, poor fit]"
COc1cc(Cl)c(C)cc1NC(=O)CSc1nnc(-c2ccco2)n1CC(C)C,"31.6 µM [rising, single point]","15.8 µM [rising, single point]"
COc1ccc(NC(=O)c2ccc(NC(=O)C(C)C)cc2)c([N+](=O)[O-])c1,"0.178 µM [rising, full curve, poor fit]",–
CCCCCC(=O)NNC(=O)c1c(O)c2ccccc2n(CC)c1=O,"2.24 µM [falling, full curve, poor fit]","2.51 µM [falling, single point]"
CC(C)(C)c1ccc(OCCNC(=O)Cc2ccc(F)cc2)cc1,"31.6 µM [rising, single point]","31.6 µM [rising, single point]"
CC(=O)N1N=C(c2ccc3ccccc3c2)OC1(C)C,"25.1 µM [rising, single point]",–
COc1ccccc1/C=C1\CCCC2=C1Nc1nnnn1C2c1ccccc1OC (centres undefined),"25.1 µM [rising, single point]","12.6 µM [rising, single point]"
C/C(=N\N=C(N)N)c1cc(Cl)ccc1Cl,–,"17.8 µM [falling, partial curve, poor fit]"
NC/C(=N\O)c1ccc(Cl)cc1Cl,"1.78 µM [rising, partial curve]",–
COc1ccccc1NS(=O)(=O)c1cc(NC(=O)CCC(=O)c2cccs2)ccc1Cl,"35.5 µM [rising, single point]","31.6 µM [rising, single point]"
Cc1ccccc1NC(=O)C1CCN(c2cc(-c3ccccc3)nc3ncnn23)CC1,"14.1 µM [rising, partial curve]",–
CCCCN(CC)C(=S)Nc1ccc2nc3n(c(=O)c2c1)CCCCC3,"0.00794 µM [rising, full curve, poor fit]",–

# Quoted at random: three entries already listed
Compound,AC50 [1],AC50 [2]
CCOC(=O)C1=C2c3ccc4ccccc4c3CC(C)(C)N2C(=O)C1=O,"25.1 µM [rising, single point]","15.8 µM [rising, single point]"
CC(=O)c1ccc(OCC(O)COc2ccc(C(C)=O)cc2)cc1,"11.2 µM [rising, single point]","8.91 µM [rising, partial curve]"
CC(=O)N1N=C(c2ccc3ccccc3c2)OC1(C)C,"25.1 µM [rising, single point]",–
